Laboratory results from publication PMC4947123.
These are yes or no findings as the source states them, for the method shown. In cells and extracts the contact can be indirect. These calls come from enrichment with a bait or labelling near it, and not all partners need be listed. For part of these data: No binding means not detected with the bait.

Amino acid sequences for entries named in this document (tags omitted). A change or cut given only in a name is not applied to a line headed by its entry.
UniProt Q96CV9: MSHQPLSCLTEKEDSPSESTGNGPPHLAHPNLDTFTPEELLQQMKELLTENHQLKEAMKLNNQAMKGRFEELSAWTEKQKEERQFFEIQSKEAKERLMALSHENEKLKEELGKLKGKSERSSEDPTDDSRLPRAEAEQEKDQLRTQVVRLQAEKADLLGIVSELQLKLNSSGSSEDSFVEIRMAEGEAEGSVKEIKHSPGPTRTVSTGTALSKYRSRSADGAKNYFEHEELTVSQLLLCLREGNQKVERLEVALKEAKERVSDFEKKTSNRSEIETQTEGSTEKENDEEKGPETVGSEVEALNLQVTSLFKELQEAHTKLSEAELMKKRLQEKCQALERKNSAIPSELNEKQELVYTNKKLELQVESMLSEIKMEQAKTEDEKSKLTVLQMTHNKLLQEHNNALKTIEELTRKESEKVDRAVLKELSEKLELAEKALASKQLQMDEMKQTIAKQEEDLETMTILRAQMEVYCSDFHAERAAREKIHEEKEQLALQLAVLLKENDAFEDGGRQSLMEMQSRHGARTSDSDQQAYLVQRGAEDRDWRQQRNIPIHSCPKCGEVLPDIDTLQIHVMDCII
UniProt Q9UHD9: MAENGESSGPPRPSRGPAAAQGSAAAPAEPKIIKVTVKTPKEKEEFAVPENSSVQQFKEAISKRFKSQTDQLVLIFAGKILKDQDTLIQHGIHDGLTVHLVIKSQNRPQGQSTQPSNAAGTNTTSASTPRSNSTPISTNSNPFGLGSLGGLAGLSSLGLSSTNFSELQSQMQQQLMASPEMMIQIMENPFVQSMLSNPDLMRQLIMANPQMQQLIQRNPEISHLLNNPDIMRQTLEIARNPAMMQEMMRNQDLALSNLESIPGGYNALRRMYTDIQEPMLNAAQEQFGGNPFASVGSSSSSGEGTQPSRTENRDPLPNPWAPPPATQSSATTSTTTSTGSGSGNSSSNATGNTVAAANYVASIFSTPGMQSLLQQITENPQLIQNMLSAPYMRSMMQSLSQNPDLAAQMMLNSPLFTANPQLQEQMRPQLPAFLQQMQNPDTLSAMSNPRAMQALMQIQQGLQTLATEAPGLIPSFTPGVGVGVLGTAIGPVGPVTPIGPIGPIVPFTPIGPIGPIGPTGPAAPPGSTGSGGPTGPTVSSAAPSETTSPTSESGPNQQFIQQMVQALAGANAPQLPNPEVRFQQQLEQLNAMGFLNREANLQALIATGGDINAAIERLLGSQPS
UniProt P35637: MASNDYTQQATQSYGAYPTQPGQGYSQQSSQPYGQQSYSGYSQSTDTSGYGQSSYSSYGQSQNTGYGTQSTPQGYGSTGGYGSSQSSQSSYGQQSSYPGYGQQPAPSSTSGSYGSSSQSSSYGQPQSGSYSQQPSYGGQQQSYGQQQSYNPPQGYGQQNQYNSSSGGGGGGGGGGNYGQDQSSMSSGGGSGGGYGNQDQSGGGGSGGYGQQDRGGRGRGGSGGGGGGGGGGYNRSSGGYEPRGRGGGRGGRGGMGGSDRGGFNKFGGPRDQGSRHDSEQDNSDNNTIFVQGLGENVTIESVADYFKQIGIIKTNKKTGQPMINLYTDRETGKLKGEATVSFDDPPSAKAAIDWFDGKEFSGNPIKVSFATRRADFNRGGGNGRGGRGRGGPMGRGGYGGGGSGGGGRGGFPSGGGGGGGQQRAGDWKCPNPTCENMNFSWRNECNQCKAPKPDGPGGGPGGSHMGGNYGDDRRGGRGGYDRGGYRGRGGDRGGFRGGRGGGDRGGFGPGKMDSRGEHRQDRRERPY

Columns and labels:
[1] = target: bioGFP-tagged OPTN wild-type (UniProt Q96CV9); test: affinity purification with mass spectrometry
[2] = target: bioGFP-tagged OPTN E478G (UniProt Q96CV9); test: affinity purification with mass spectrometry; bioGFP-tagged bait co-transfected with BirA in N2A cells; captured from lysate with magnetic streptavidin beads; gel, LC-MS/MS, MaxQuant, PERSEUS, Welch's t test with FDR 0.01 and S0 1.5, triplicate, against GFP or wild type
[3] = target: bioGFP-tagged OPTN wild-type (UniProt Q96CV9); test: as above
[4] = target: bioGFP-tagged UBQLN2 wild-type (UniProt Q9UHD9); test: as above
[5] = target: bioGFP-tagged TDP-43 M337V (UniProt Q13148); test: as above
[6] = target: bioGFP-tagged TDP-43 wild-type (UniProt Q13148); test: as above
[7] = target: bioGFP-tagged FUS R521C (human) (UniProt P35637); test: as above
[8] = target: bioGFP-tagged FUS wild-type (human) (UniProt P35637); test: as above

binding [5] | binding [6] | binding [7] | binding [8] | further results | Binder
– | – | – | – | binding [1]: binds | IgE-binding protein (Iap) (protein, UniProt P03975 1-557) MALQVMFGLEFFLVLEALLFLFTCYQVVKAGRILDEIQDKLSEVKRGERVGTKRKYGTQNKYTGLSKGLEPEEKLRLGRNTWREIRRKRGKREKKKDQLAEVSRKRSLCSSLDGLGKPALSSSEAGEESSSEETDWEEEAAHYQPANWSRKKPKAAGEGQFADWPQGSRLQGPPYAESPPCVVRQQCAERCAERQCAERQCADSFIPREEQRKIQQAFPVFEGAEGGRVHAPVEYLQIKEIAESVRKYGTNANFTLVQLDRLAGMALTPADWQTVVKAALPSMGKYMEWRALWHEAAQAQARANAAALTPEQRDWTFDLLTGQGAYSADQTNYHWGAYAQISSTAIRPGRRSRAGETTGQLTKIIQGPQESFSDFVARMTEAAERIFGESEQAAPLIEQLIYEQATKECRAVHSPKKEQRLTRLAQGLSRAWGKPRLLKTDNGPAYTSQKFQQFCRQMDVTHLTGLPYNPQGQGIVERAHRTLKAYLIKQKRGTFEETVPRAPRVSVSLALFTLNFLNIDAHGHTAAERHVQSQIGPMRWLNGKMSLIINGMARILS
– | – | – | – | binding [2]: no binding; binding [3]: binds; binding [4]: binds | TBC1 domain family member 15 (Tbc1d15) (protein, UniProt Q9CXF4 1-671) MAAAGVVSGKIIYEQEGVYIHSSCGKANDQDSLISGILRVLEKDAEVIVDWRPLDDALDSSSILCAGKDSSSVVEWTQAPKERAHRGSDQQSSYEAEWDMVTTVSFKKKPHTNGDAPGHRNGKSKWSFLFSLADLKSVKQSKEGMGWSYLVFCLKDDVMLPALHFHQGDSKLLIESLEKYVVLCESPQDSRTLLVNCQNKSLSQSFENLLDEPAYGLIQKIKKDPYTATMVGFSKVTNYIFDSLRGSDPSTHQRPPSEMADFLSDAIPGLKINQQEEPGFEVITRIDLGERPVVQRREPVSLEEWNKSLDPEGRLVAVESMKQKIFRGGLSHSLRKQAWKFLLGYFPWDSTKEERTQLQKQKTDEYFRMKLQWKSVSEAQEKRNSRLRDYRSLIEKDVNRTDRTNKFYEGQDNPGLILLHDILMTYCMYDFDLGYVQGMSDLLSPLLYVMENEVDAFWCFASYMDQMHQNFEEQMQGMKTQLIQLSTLLRLLDSGFCSYLESQDSGYLYFCFRWLLIRFKREFSFLDILRLWEVMWTELPCKNFHLLLCCAILESEKQQIMAKHYGFNEILKHINELSMKIDVEDILCKAEAISLQMAQCKELPQAVCEILGLQDSEITTPDSDTDENVGSPCPVSAFPSSTLPILAASEAKDDSPTQTLASPNACRLTPA
binds | binds | – | – | – | hnRNPQ (Syncrip) (protein, UniProt Q7TMK9 1-623) MATEHVNGNGTEEPMDTTSAVIHSENFQTLLDAGLPQKVAEKLDEIYVAGLVAHSDLDERAIEALKEFNEDGALAVLQQFKDSDLSHVQNKSAFLCGVMKTYRQREKQGTKVADSSKGPDEAKIKALLERTGYTLDVTTGQRKYGGPPPDSVYSGQQPSVGTEIFVGKIPRDLFEDELVPLFEKAGPIWDLRLMMDPLTGLNRGYAFVTFCTKEAAQEAVKLYNNHEIRSGKHIGVCISVANNRLFVGSIPKSKTKEQILEEFSKVTEGLTDVILYHQPDDKKKNRGFCFLEYEDHKTAAQARRRLMSGKVKVWGNVGTVEWADPIEDPDPEVMAKVKVLFVRNLANTVTEEILEKSFSQFGKLERVKKLKDYAFIHFDERDGAVKAMEEMNGKDLEGENIEIVFAKPPDQKRKERKAQRQAAKNQMYDDYYYYGPPHMPPPTRGRGRGGRGGYGYPPDYYGYEDYYDYYGYDYHNYRGGYEDPYYGYEDFQVGARGRGGRGARGAAPSRGRGAAPPRGRAGYSQRGGPGSARGVRGARGGAQQQRGRGVRGARGGRGGNVGGKRKADGYNQPDTKRRQTNNQNWGSQPIAQQPLQGGDHSGNYGYKSENQEFYQDTFGQQWK
binds | binds | binds | binds | – | Caprin1 (protein, UniProt Q60865 1-707) MPSATSHSGSGSKSSGPPPPSGSSGSEAAAGAAAPASQHPATGTGAVQTEAMKQILGVIDKKLRNLEKKKGKLDDYQERMNKGERLNQDQLDAVSKYQEVTNNLEFAKELQRSFMALSQDIQKTIKKTARREQLMREEAEQKRLKTVLELQYVLDKLGDDDVRTDLKQGLSGVPILSEEELSLLDEFYKLVDPERDMSLRLNEQYEHASIHLWDLLEGKEKPVCGTTYKALKEIVERVFQSNYFDSTHNHQNGLCEEEEAASAPTVEDQVAEAEPEPAEEYTEQSEVESTEYVNRQFMAETQFSSGEKEQVDEWTVETVEVVNSLQQQPQAASPSVPEPHSLTPVAQSDPLVRRQRVQDLMAQMQGPYNFIQDSMLDFENQTLDPAIVSAQPMNPTQNMDMPQLVCPQVHSESRLAQSNQVPVQPEATQVPLVSSTSEGYTASQPLYQPSHATEQRPQKEPMDQIQATISLNTDQTTASSSLPAASQPQVFQAGTSKPLHSSGINVNAAPFQSMQTVFNMNAPVPPANEPETLKQQSQYQATYNQSFSSQPHQVEQTELQQDQLQTVVGTYHGSQDQPHQVPGNHQQPPQQNTGFPRSSQPYYNSRGVSRGGSRGARGLMNGYRGPANGFRGGYDGYRPSFSNTPNSGYSQSQFTAPRDYSGYQRDGYQQNFKRGSGQSGPRGAPRGRGGPPRPNRGMPQMNTQQVN
– | – | binds | binds | – | DNA ligase 3 (Lig3) (protein, UniProt P97386 1-1015) MTLAFKILFPRNLCALGRKELCLFPEQNRWAAISQFSQWSETNLLGGCCLLQRRKPVLALQRGHLRPRATHLTFWPGSHVGLCTGPCAMAEQRFCVDYAKRGTAGCKKCKEKIVKGVCRIGKVVPNPFSESGGDMKEWYHIKCMFEKLERARATTKKIEDLTELEGWEELEDNEKEQISQHIADLSSKAAATPKKKAAVQAKLTTTGQVTSPVKGASFITSTNPRKFSGFSAAKPNNSEQAPSSPAPGTSLSASKCDPKHKDCLLREFRKLCAMVAENPSYNTKTQIIHDFLQKGSTGGFSDGFHGDVYLTVKLLLPGVIKSVYNLNDKQIVKLFSRIFNCNPDDMARDLEQGDVSETIRIFFEQSKSFPPAAKSLLTIQEVDAFLLHLSKLTKEDEQQQALQDIASRCTANDLKCIIRLIKHDLKMNSGAKHVLDALDPNAYEAFKASRNLQDVVERVLHNEQEVEKDPGRRRALRVQASLMTPVQPMLAEACKSIEYAMKKCPNGMFSEIKYDGERVQVHKKGDHFSYFSRSLKPVLPHKVAHFKDYIPKAFPGGQSMILDSEVLLIDNNTGKPLPFGTLGVHKKAAFQDANVCLFVFDCIYFNDVSLMDRPLCERRKFLHDNMVEIRNRIMFSEMKQVTKASDLADMINRVIREGLEGLVLKDVKGTYEPGKRHWLKVKKDYLNEGAMADTADLVVLGAFYGQGSKGGMMSIFLMGCYDPDSQKWCTVTKCAGGHDDATLARLQKELVMVKISKDPSKIPSWLKINKIYYPDFIVPDPKKAAVWEITGAEFSRSEAHTADGISIRFPRCTRIRDDKDWKSATNLPQLKELYQLSKDKADFAVVAGDEASPTTGGSSGENEGTAGSAGPCKGPPSKSSASAKTTEQKLNSPSSRGGIKPIPKHSPMKPGEKLAVKSSPVKVGMKRKATDETPCLKKVLLDVFTGVRLYLPPSTPDFKRLKRYFVAFDGDLVQEFDMGSATHVLGNREKNTDAQLVSSEWIWACIRKRRLIAPC
